# Some results were stated once for a whole list of compounds, not compound by compound.
# Assay: Solubility in water
# Type: physicochemical
compound,measurement,value
O=C1c2ccc3c4ccc5c6c(ccc(c7ccc(c2c37)C(=O)N1CCOCCO)c64)C(=O)N(CCOCCO)C5=O [CE4],solubility in water,less than 0.1 % by weight
